PubChem BioAssay AID1259308, NCATS – 2017

Screen: 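Candidate targets for better recombinant protein yield in mammalian cells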 (primary screen)
Cell system: human HEK293 embryonic kidney cells stably expressing firefly luciferase (HEK-CMV-Luc2-Hygro)
Reagent: single siRNA against human genes, 0.8 pmol siRNA per well
Timing: 72 h
Measurement: 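Luciferase light (ONE-Glo) measured on one replicate plate set and viability (CellTiter-Glo) on the other, scaled to a negative control siRNA, with robust z-scores and luciferase per cell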
Reading the numbers: total luciferase, z-score: higher = more reporter protein produced
Hit rule: 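An siRNA counts as active if its total luciferase robust z-score exceeds 3; genes with two or more such siRNAs out of three were retested with fresh siRNAs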
Meaning of the calls: active = raised luciferase; inactive = no rise
The deposit covers about 59,000 reagents; shown is a random part of them. Of all reagents, about 1,510 (2.6%) got an active call. 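Calls use total luciferase alone and ignore viability, so some active siRNAs may act by altering cell number.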 Reagents against one gene are numbered here. Further read-outs or replicates are left out here.

PLSCR2 (phospholipid scramblase 2) #1 — total luciferase, z-score: -0.0912; outcome: inactive
PLSCR2 (phospholipid scramblase 2) #2 — total luciferase, z-score: -0.0742; outcome: inactive
PLSCR2 (phospholipid scramblase 2) #3 — total luciferase, z-score: -0.0136; outcome: inactive
BCDIN3D (BCDIN3 domain containing RNA methyltransferase) #1 — total luciferase, z-score: 0.0747; outcome: inactive
BCDIN3D (BCDIN3 domain containing RNA methyltransferase) #2 — total luciferase, z-score: -0.737; outcome: inactive
BCDIN3D (BCDIN3 domain containing RNA methyltransferase) #3 — total luciferase, z-score: -0.125; outcome: inactive
TMEM243 (transmembrane protein 243) #1 — total luciferase, z-score: 0.193; outcome: inactive
TMEM243 (transmembrane protein 243) #2 — total luciferase, z-score: 1.31; outcome: inactive
TMEM243 (transmembrane protein 243) #3 — total luciferase, z-score: -0.387; outcome: inactive
KRTAP1-5 (keratin associated protein 1-5) #1 — total luciferase, z-score: -1.09; outcome: inactive
KRTAP1-5 (keratin associated protein 1-5) #2 — total luciferase, z-score: -0.5; outcome: inactive
KRTAP1-5 (keratin associated protein 1-5) #3 — total luciferase, z-score: 0.391; outcome: inactive

Records listed so far whose gene name starts with P or p:
PLSCR2 (phospholipid scramblase 2) #1 — total luciferase, z-score: -0.0912; outcome: inactive
PLSCR2 (phospholipid scramblase 2) #2 — total luciferase, z-score: -0.0742; outcome: inactive
PLSCR2 (phospholipid scramblase 2) #3 — total luciferase, z-score: -0.0136; outcome: inactive
